Results taken from article PMC4118026.
These are yes or no findings as the source states them, for the method shown. In cells and extracts the contact can be indirect. Some binding calls cover weakened binding; strength is not graded here.

Protein sequences, listed by entry. Tags and fused reporters are not part of them.
UniProt Q8R4B8: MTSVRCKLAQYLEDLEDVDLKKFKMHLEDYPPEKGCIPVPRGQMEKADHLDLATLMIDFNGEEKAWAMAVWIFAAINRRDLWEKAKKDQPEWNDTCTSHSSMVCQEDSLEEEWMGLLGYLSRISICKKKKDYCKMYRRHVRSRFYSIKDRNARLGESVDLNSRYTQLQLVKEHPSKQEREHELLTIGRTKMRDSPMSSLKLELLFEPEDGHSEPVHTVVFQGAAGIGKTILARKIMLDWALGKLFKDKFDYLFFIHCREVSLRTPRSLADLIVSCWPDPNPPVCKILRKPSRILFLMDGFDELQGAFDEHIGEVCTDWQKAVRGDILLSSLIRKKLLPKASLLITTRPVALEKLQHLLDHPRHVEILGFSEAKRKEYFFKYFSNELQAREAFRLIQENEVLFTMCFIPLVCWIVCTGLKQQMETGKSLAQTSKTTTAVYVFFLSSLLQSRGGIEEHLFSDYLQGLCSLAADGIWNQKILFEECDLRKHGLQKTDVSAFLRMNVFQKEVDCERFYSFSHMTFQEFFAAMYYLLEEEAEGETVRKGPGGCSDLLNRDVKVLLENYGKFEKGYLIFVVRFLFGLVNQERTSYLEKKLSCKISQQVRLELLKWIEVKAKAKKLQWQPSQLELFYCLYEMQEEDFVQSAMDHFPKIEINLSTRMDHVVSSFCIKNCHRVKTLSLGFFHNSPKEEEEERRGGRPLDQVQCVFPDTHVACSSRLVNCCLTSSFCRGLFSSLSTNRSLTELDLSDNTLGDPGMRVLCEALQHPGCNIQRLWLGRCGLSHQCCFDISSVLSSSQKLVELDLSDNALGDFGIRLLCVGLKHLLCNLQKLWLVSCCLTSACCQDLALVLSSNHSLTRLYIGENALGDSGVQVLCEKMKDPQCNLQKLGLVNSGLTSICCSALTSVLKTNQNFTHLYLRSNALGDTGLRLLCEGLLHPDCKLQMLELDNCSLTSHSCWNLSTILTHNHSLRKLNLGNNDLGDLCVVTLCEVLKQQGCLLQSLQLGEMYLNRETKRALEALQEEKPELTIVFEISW

Molecular target: NLRP3 (mouse (endogenous in primary cortical astrocytes)) (UniProt Q8R4B8)
Assay: co-IP; pre-cleared lysates of primary astrocytes, untreated or treated 24 h with LPS, ATP or ethanol (10, 50 mM); mouse anti-NLRP3 antibody covalently immobilised on agarose (Pierce Co-IP kit); eluate blotted with anti-caspase-1; mouse IgG as negative control

binding: binds
B1: p45 caspase-1 precursor (enzyme, UniProt P29452 1-402)
chain: MADKILRAKRKQFINSVSIGTINGLLDELLEKRVLNQEEMDKIKLANITAMDKARDLCDHVSKKGPQASQIFITYICNEDCYLAGILELQSAPSAETFVATEDSKGGHPSSSETKEEQNKEDGTFPGLTGTLKFCPLEKAQKLWKENPSEIYPIMNTTTRTRLALIICNTEFQHLSPRVGAQVDLREMKLLLEDLGYTVKVKENLTALEMVKEVKEFAACPEHKTSDSTFLVFMSHGIQEGICGTTYSNEVSDILKVDTIFQMMNTLKCPSLKDKPKVIIIQACRGEKQGVVLLKDSVRDSEEDFLTDAIFEDDGIKKAHIEKDFIAFCSSTPDNVSWRHPVRGSLFIESLIKHMKEYAWSCDLEDIFRKVRFSFEQPEFRLQMPTADRVTLTKRFYLFPGH
